Measured values as given in the supplement of paper PMC10338343.
± gives the standard deviation. This is one part of the list. Many of these values have a large error.

test system: EfPiwi piRISC loaded with L1MC piRNA (26 nt); experiment: pre-steady-state target cleavage rate (min^-1); guide: L1MC piRNA 5'p-UAACUAAAUACUAUGCAAGCUGUAGG; MIWI and MILI are mouse PIWI proteins and EfPiwi is from a freshwater sponge; tags in brackets are library labels; higher = faster piRNA-guided slicing of the target; conditions: auxiliary factor: 500 nM Ephydatia muelleri Gtsf1
Method in brief: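 In HEPES–potassium acetate buffer at 33 °C, […] transcribed, DNA-blocked target RNA library was mixed with 1 nM active affinity-purified piRISC carrying one synthetic guide, with or without 500 nM GTSF1 partner protein, for 0–8 or 0–960 min. Uncleaved targets were sequenced and normalised to depth and to weakly complementary targets; three trials were pooled and k3 was capped at 0.0001 min^-1. The pre-steady-state cleavage rate followed from a burst-and-steady-state fit.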

| Sequence | pre-steady-state target cleavage rate |
| --- | --- |
| UCCUGGAUGUCGAACGUUAGUAUAUUAGUUA | 0.000475 ± 0.013 |
| UCCUCCUUCAGCUUGCAUUGUAUUUAGUUA | 0.0307 ± 0.0077 |
| UCCUCCUAGAGCUUGCAUAGUAUUUAGUUA | 0.0186 ± 0.0054 |
| UCCUGGAACAGCAUGCAUAGUAAUUAGUUA | 0.0139 ± 0.0048 |
| UCCUGCUACAGCUUGCAUAGUAUUUACGUUA | 0.00429 ± 0.002 |
| UCCUCCUACACCUUGCUUAGUAUUUAGUUA | 0.00914 ± 0.0039 |
| UCCUGGAACAGCUUGCAUAGUAUUGUAGUUA | 0.00741 ± 0.0027 |
| UCCUGGUUCAGCUUGCAAAGUAUUUAGUUA | 0.0681 ± 0.019 |
| UCCUGGAUGUCCUUGCAUAUUAUUUAGUUA | 0.00283 ± 0.0025 |
| UCCUGCUACAGCUCGCAUAGUAUUUAGUUA | 0.0122 ± 0.0028 |
| UCCUCCUACAGCUUGCAUAGUAUUUAGUA | 0.00701 ± 0.0026 |
| UCCUCGUAGAGCUUGCAUAGUAUUUAGUUA | 0.0385 ± 0.0086 |
| UCCUGGAUCACCUUGCAUUGUAUUUAGUUA | 0.00151 ± 0.0045 |
| UCCUGGAUCAGCUUGCAUAGUAUCUAGUUA | 0.0167 ± 0.005 |
| UCCUGGAUGAGCUGUGCAUAGUAUUUAGUUA | 0.0255 ± 0.0063 |
| UCCUGGAUGUCGUUGGUUAGUAUUUAGUUA | < 0.0001 |
| UCCUGGAUGUCGAUGCAUUGAAUUUAGUUA | 0.000216 ± 0.013 |
| UCCUCCUACAGGAAGCAUAGUAUUUAGUAA | 0.00397 ± 0.0031 |
| UCCUGCUACACGUUGCAUAGUAUUUAGUAA | 0.00458 ± 0.0025 |
| UCCUGGAUCUCCUUGCAUAGUAUUUAGUUA | 0.0227 ± 0.0066 |
| UCCUGCUUCAGGUUGCAUAGUAUUUAGUUA | 0.0664 ± 0.015 |
| UCCUGGAUCAGCUUGCAUACUAAUUAGUUA | 0.00158 ± 0.0023 |
| UCCUGGAUGUCGAACGUAUCAAUAUAGUUA | < 0.0001 |
| UCCUGGAUGUCGAAGCAUAGUAUAAAGUUA | 0.000718 ± 0.013 |

Already shown: entries from further up.

| Sequence | pre-steady-state target cleavage rate |
| --- | --- |
| UCCUGGAUGUCGAUGCAUUGAAUUUAGUUA | 0.000216 ± 0.013 |
| UCCUCCUACAGGAAGCAUAGUAUUUAGUAA | 0.00397 ± 0.0031 |
| UCCUGCUACACGUUGCAUAGUAUUUAGUAA | 0.00458 ± 0.0025 |
| UCCUGGAUCUCCUUGCAUAGUAUUUAGUUA | 0.0227 ± 0.0066 |
| UCCUGCUUCAGGUUGCAUAGUAUUUAGUUA | 0.0664 ± 0.015 |
| UCCUGGAUCAGCUUGCAUACUAAUUAGUUA | 0.00158 ± 0.0023 |
